Measured values published in the supplement of paper PMC8728848.
The list shows a part of the results.

What was measured:
Experiment in all cases: glycan array binding signal (z-score within array); higher = stronger binding
Settings in all cases: glycan notation: IUPAC condensed, linker removed
[1] = biological target: GlcNAc(b1-2)Gal(b1-3)GalNAc
Method in brief: (§1)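 Columns mapping to the same glycan were averaged after glycan names were converted to IUPAC-condensed notation. The data come from 3228 arrays in the Consortium for Functional Glycomics database, limited to those with an available protein sequence. Binding is reported as a within-array Z-score averaged across arrays of one protein sequence and across linkers.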

[2] = biological target: GlcNAc(b1-2)Man(a1-3)[GlcNAc(b1-2)Man(a1-6)]Man(b1-4)GlcNAc(b1-4)GlcNAc
Method in brief: as §1

[3] = biological target: GlcNAc(b1-2)Man(a1-3)[GlcNAc(b1-2)Man(a1-6)]Man(b1-4)GlcNAc(b1-4)[Fuc(a1-6)]GlcNAc
Method in brief: as §1

[4] = biological target: GlcNAc(b1-2)Man(a1-3)[GlcNAc(b1-4)][GlcNAc(b1-2)Man(a1-6)]Man(b1-4)GlcNAc(b1-4)GlcNAc
Method in brief: as §1

[5] = biological target: GlcNAc(b1-2)Man(a1-3)[GlcNAc(b1-4)][GlcNAc(b1-2)Man(a1-6)]Man(b1-4)GlcNAc(b1-4)[Fuc(a1-6)]GlcNAc
Method in brief: as §1

[6] = biological target: GlcNAc(b1-2)[GlcNAc(b1-4)]Man(a1-3)[GlcNAc(b1-2)Man(a1-6)]Man(b1-4)GlcNAc(b1-4)GlcNAc
Method in brief: as §1

[7] = biological target: GlcNAc(b1-2)[GlcNAc(b1-4)]Man(a1-3)[GlcNAc(b1-4)][GlcNAc(b1-2)Man(a1-6)]Man(b1-4)GlcNAc(b1-4)GlcNAc
Method in brief: as §1

[8] = biological target: GlcNAc(b1-2)[GlcNAc(b1-4)]Man(a1-3)[GlcNAc(b1-4)][GlcNAc(b1-2)[GlcNAc(b1-6)]Man(a1-6)]Man(b1-4)GlcNAc(b1-4)GlcNAc
Method in brief: as §1

[9] = biological target: GlcNAc(b1-2)[GlcNAc(b1-4)]Man(a1-3)[GlcNAc(b1-4)][GlcNAc(b1-2)[GlcNAc(b1-6)]Man(a1-6)]Man(b1-4)GlcNAc(b1-4)[Fuc(a1-6)]GlcNAc
Method in brief: as §1

[10] = biological target: GlcNAc(b1-2)[GlcNAc(b1-6)]Man(a1-6)[GlcNAc(b1-2)Man(a1-3)]Man(b1-4)GlcNAc(b1-4)GlcNAc
Method in brief: as §1

[11] = biological target: GlcNAc(b1-2)[GlcNAc(b1-6)]Man(a1-6)[GlcNAc(b1-2)Man(a1-3)]Man(b1-4)GlcNAc(b1-4)[Fuc(a1-6)]GlcNAc
Method in brief: as §1

[12] = biological target: GlcNAc(b1-2)[GlcNAc(b1-6)]Man(a1-6)[GlcNAc(b1-4)][GlcNAc(b1-2)Man(a1-3)]Man(b1-4)GlcNAc(b1-4)GlcNAc
Method in brief: as §1

[13] = biological target: GlcNAc(b1-3)Fuc
Method in brief: as §1

[14] = biological target: GlcNAc(b1-3)Gal
Method in brief: as §1

[15] = biological target: GlcNAc(b1-3)Gal(b1-3)GalNAc
Method in brief: as §1

[16] = biological target: GlcNAc(b1-3)Gal(b1-4)Glc
Method in brief: as §1

[17] = biological target: GlcNAc(b1-3)Gal(b1-4)GlcNAc
Method in brief: as §1

[18] = biological target: GlcNAc(b1-3)Gal(b1-4)GlcNAc(b1-2)Man(a1-3)[GlcNAc(b1-3)Gal(b1-4)GlcNAc(b1-2)Man(a1-6)]Man(b1-4)GlcNAc(b1-4)GlcNAc
Method in brief: as §1

[19] = biological target: GlcNAc(b1-3)Gal(b1-4)GlcNAc(b1-2)Man(a1-3)[GlcNAc(b1-3)Gal(b1-4)GlcNAc(b1-2)Man(a1-6)]Man(b1-4)GlcNAc(b1-4)[Fuc(a1-6)]GlcNAc
Method in brief: as §1

[20] = biological target: GlcNAc(b1-3)Gal(b1-4)GlcNAc(b1-2)[GlcNAc(b1-3)Gal(b1-4)GlcNAc(b1-6)]Man(a1-6)[GlcNAc(b1-3)Gal(b1-4)GlcNAc(b1-2)Man(a1-3)]Man(b1-4)GlcNAc(b1-4)GlcNAc
Method in brief: as §1

[21] = biological target: GlcNAc(b1-3)Gal(b1-4)GlcNAc(b1-3)Gal(b1-4)GlcNAc
Method in brief: as §1

[22] = biological target: GlcNAc(b1-3)Gal(b1-4)GlcNAc(b1-3)Gal(b1-4)GlcNAc(b1-2)Man(a1-3)[GlcNAc(b1-3)Gal(b1-4)GlcNAc(b1-3)Gal(b1-4)GlcNAc(b1-2)Man(a1-6)]Man(b1-4)GlcNAc(b1-4)GlcNAc
Method in brief: as §1

[23] = biological target: GlcNAc(b1-3)Gal(b1-4)GlcNAc(b1-3)Gal(b1-4)GlcNAc(b1-2)Man(a1-3)[GlcNAc(b1-3)Gal(b1-4)GlcNAc(b1-3)Gal(b1-4)GlcNAc(b1-2)Man(a1-6)]Man(b1-4)GlcNAc(b1-4)[Fuc(a1-6)]GlcNAc
Method in brief: as §1

[24] = biological target: GlcNAc(b1-3)Gal(b1-4)GlcNAc(b1-3)Gal(b1-4)GlcNAc(b1-2)[GlcNAc(b1-3)Gal(b1-4)GlcNAc(b1-3)Gal(b1-4)GlcNAc(b1-6)]Man(a1-6)[GlcNAc(b1-3)Gal(b1-4)GlcNAc(b1-3)Gal(b1-4)GlcNAc(b1-2)Man(a1-3)]Man(b1-4)GlcNAc(b1-4)[Fuc(a1-6)]GlcNAc
Method in brief: as §1

[25] = biological target: GlcNAc(b1-3)Gal(b1-4)GlcNAc(b1-3)Gal(b1-4)GlcNAc(b1-3)Gal(b1-4)GlcNAc(b1-2)Man(a1-3)[GlcNAc(b1-3)Gal(b1-4)GlcNAc(b1-3)Gal(b1-4)GlcNAc(b1-3)Gal(b1-4)GlcNAc(b1-2)Man(a1-6)]Man(b1-4)GlcNAc(b1-4)GlcNAc
Method in brief: as §1

[26] = biological target: GlcNAc(b1-3)Gal(b1-4)GlcNAc(b1-3)Gal(b1-4)GlcNAc(b1-3)Gal(b1-4)GlcNAc(b1-2)Man(a1-3)[GlcNAc(b1-3)Gal(b1-4)GlcNAc(b1-3)Gal(b1-4)GlcNAc(b1-3)Gal(b1-4)GlcNAc(b1-2)Man(a1-6)]Man(b1-4)GlcNAc(b1-4)[Fuc(a1-6)]GlcNAc
Method in brief: as §1

[27] = biological target: GlcNAc(b1-3)Gal(b1-4)GlcNAc(b1-3)Gal(b1-4)GlcNAc(b1-3)Gal(b1-4)GlcNAc(b1-2)[GlcNAc(b1-3)Gal(b1-4)GlcNAc(b1-3)Gal(b1-4)GlcNAc(b1-3)Gal(b1-4)GlcNAc(b1-6)]Man(a1-6)[GlcNAc(b1-3)Gal(b1-4)GlcNAc(b1-3)Gal(b1-4)GlcNAc(b1-3)Gal(b1-4)GlcNAc(b1-2)Man(a1-3)]Man(b1-4)GlcNAc(b1-4)[Fuc(a1-6)]GlcNAc
Method in brief: as §1

[28] = biological target: GlcNAc(b1-3)Gal(b1-4)GlcNAc(b1-3)Gal(b1-4)GlcNAc(b1-3)Gal(b1-4)GlcNAc(b1-3)Gal(b1-4)GlcNAc(b1-2)Man(a1-3)[GlcNAc(b1-3)Gal(b1-4)GlcNAc(b1-3)Gal(b1-4)GlcNAc(b1-3)Gal(b1-4)GlcNAc(b1-3)Gal(b1-4)GlcNAc(b1-2)Man(a1-6)]Man(b1-4)GlcNAc(b1-4)GlcNAc
Method in brief: as §1

[29] = biological target: GlcNAc(b1-3)Gal(b1-4)GlcNAc(b1-3)Gal(b1-4)GlcNAc(b1-3)Gal(b1-4)GlcNAc(b1-3)Gal(b1-4)GlcNAc(b1-2)Man(a1-3)[GlcNAc(b1-3)Gal(b1-4)GlcNAc(b1-3)Gal(b1-4)GlcNAc(b1-3)Gal(b1-4)GlcNAc(b1-3)Gal(b1-4)GlcNAc(b1-2)Man(a1-6)]Man(b1-4)GlcNAc(b1-4)[Fuc(a1-6)]GlcNAc
Method in brief: as §1

[30] = biological target: GlcNAc(b1-3)Gal(b1-4)GlcNAc(b1-3)Gal(b1-4)GlcNAc(b1-3)Gal(b1-4)GlcNAc(b1-3)Gal(b1-4)GlcNAc(b1-2)[GlcNAc(b1-3)Gal(b1-4)GlcNAc(b1-3)Gal(b1-4)GlcNAc(b1-3)Gal(b1-4)GlcNAc(b1-3)Gal(b1-4)GlcNAc(b1-6)]Man(a1-6)[GlcNAc(b1-3)Gal(b1-4)GlcNAc(b1-3)Gal(b1-4)GlcNAc(b1-3)Gal(b1-4)GlcNAc(b1-3)Gal(b1-4)GlcNAc(b1-2)Man(a1-3)]Man(b1-4)GlcNAc(b1-4)[Fuc(a1-6)]GlcNAc
Method in brief: as §1

B1: Thrombomodulin Extracellular (Mus musculus), P15306 (protein)
chain: MLGIFFLGVLAPASLGLSALAKLQPTGSQCVEHECFALFQGPATFLDASQACQRLQGHLMTVRSSVAADVISLLLSQSSMDLGPWIGLQLPQGCDDPVHLGPLRGFQWVTGDNHTSYSRWARPNDQTAPLCGPLCVTVSTATEAAPGEPAWEEKPCETETQGFLCEFYFTASCRPLTVNTRDPEAAHISSTYNTPFGVSGADFQTLPVGSSAAVEPLGLELVCRAPPGTSEGHWAWEATGAWNCSVENGGCEYLCNRSTNEPRCLCPRDMDLQADGRSCARPVVQSCNELCEHFCVSNAEVPGSYSCMCETGYQLAADGHRCEDVDDCKQGPNPCPQLCVNTKGGFECFCYDGYELVDGECVELLDPCFGSNCEFQCQPVSPTDYRCICAPGFAPKPDEPHKCEMFCNETSCPADCDPNSPTVCECPEGFILDEGSVCTDIDECSQGECFTSECRNFPGSYECICGPDTALAGQISKDCDPIPVREDTKEEEGSGEPPVSPTPGSPTGPPSARPVHSGVLIGISIASLSLVVALLALLCHLRKKQGAARAELEYKCASSAKEVVLQHVRTDRTLQKF
[1]
  glycan array binding signal (z-score): -0.96
[2]
  glycan array binding signal (z-score): -0.469
[3]
  glycan array binding signal (z-score): -0.307
[4]
  glycan array binding signal (z-score): -0.688
[5]
  glycan array binding signal (z-score): -0.159
[6]
  glycan array binding signal (z-score): 0.907
[7]
  glycan array binding signal (z-score): 0.101
[8]
  glycan array binding signal (z-score): -0.626
[9]
  glycan array binding signal (z-score): 0.536
[10]
  glycan array binding signal (z-score): -2.15
[11]
  glycan array binding signal (z-score): 1.44
[12]
  glycan array binding signal (z-score): 0.802
[13]
  glycan array binding signal (z-score): -0.565
[14]
  glycan array binding signal (z-score): -0.546
[15]
  glycan array binding signal (z-score): 0.123
[16]
  glycan array binding signal (z-score): 0.942
[17]
  glycan array binding signal (z-score): -0.11
[18]
  glycan array binding signal (z-score): 0.223
[19]
  glycan array binding signal (z-score): 0.834
[20]
  glycan array binding signal (z-score): -0.238
[21]
  glycan array binding signal (z-score): 0.57
[22]
  glycan array binding signal (z-score): 0.261
[23]
  glycan array binding signal (z-score): 0.584
[24]
  glycan array binding signal (z-score): 0.325
[25]
  glycan array binding signal (z-score): 2.08
[26]
  glycan array binding signal (z-score): 1.85
[27]
  glycan array binding signal (z-score): 0.27
[28]
  glycan array binding signal (z-score): -0.332
[29]
  glycan array binding signal (z-score): 1.43
[30]
  glycan array binding signal (z-score): 2.07
